# Laboratory results taken from patent US20250019644A1, “Quantitatively Mapping Amino Acid Properties (QMAP) Cell Culture Media” (UNIVERSITY OF IOWA RESEARCH FOUNDATION, priority 2023, published 2025).
# Tested on: HCT116 cells
# Assay: Screen 1: stable 13C and 15N isotope tracing of amino acids (LC-MS)
# Format: cell-based, human
# Details: 1 mM, 6 hours, QMAP; for number of metabolites that the amino acid provided with 15N nitrogen: 15N amino acid
SMILES,percentage of aspartate labeled with 13C (13C amino acid),percentage of citrate labeled with 13C (13C amino acid),percentage of fumarate labeled with 13C (13C amino acid),percentage of malate labeled with 13C (13C amino acid),number of metabolites that the amino acid provided with 13C carbon (13C amino acid),number of metabolites that the amino acid provided with 15N nitrogen
"NC(=O)C[C@H](N)C(=O)O [Asparagine, L-asparagine]",8%,3%,5%,5%,,
"NC(=O)CC[C@H](N)C(=O)O [glutamine, L-glutamine]",,,,,more metabolites than any other amino acid,more metabolites than any other amino acid
"C[C@H](N)C(=O)O [alanine, L-alanine]",,,,,more metabolites than any other amino acid,more metabolites than any other amino acid
